These are yes or no findings as the source states them, for the method shown. Some entries that bind do so weakly or less than the wild type. For part of these data: Sequences can lack the tags named with a protein.
Experiments:
[1] = molecular target: T1, GST-IRF-1 (pDEST-15-codon optimized IRF-1) (UniProt P10914); experiment: ELISA; GST-IRF-1 (100 ng) immobilised on microtitre wells; His-CHIP in the mobile phase (fixed amount with DMSO or a titration of Hsp70 peptide, or a titration of His-CHIP wt or K30A); 25 mM HEPES pH 7.5, 50 mM KCl, 10 mM MgCl2, 5% glycerol, 0.1% Tween-20, 1 h at room temperature; detected with an anti-CHIP antibody; both purified
T1 sequence: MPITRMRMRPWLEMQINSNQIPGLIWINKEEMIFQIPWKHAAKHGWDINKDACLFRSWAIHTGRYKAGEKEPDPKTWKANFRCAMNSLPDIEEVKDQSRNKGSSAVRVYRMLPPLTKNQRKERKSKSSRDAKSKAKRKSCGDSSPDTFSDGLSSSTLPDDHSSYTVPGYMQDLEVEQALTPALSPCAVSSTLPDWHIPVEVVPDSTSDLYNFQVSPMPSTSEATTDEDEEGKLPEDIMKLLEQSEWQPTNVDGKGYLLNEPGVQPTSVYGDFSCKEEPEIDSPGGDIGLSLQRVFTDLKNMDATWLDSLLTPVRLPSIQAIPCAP

Protein sequences, listed by entry. Tags and fused reporters are not part of them. Lines headed by an entry give the natural chain unless they say otherwise; changes in a name come on top.
UniProt Q9UNE7: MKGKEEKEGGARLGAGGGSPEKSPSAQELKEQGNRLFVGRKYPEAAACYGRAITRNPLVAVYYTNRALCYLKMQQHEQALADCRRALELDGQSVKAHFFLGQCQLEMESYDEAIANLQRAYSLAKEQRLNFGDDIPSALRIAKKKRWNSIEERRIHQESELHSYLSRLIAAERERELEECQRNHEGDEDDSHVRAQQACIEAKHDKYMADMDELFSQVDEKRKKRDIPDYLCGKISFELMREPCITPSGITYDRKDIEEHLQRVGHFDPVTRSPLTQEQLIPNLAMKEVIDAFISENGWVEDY

[2] = molecular target: T2, Hsp70 C-terminal peptide GPTIEEVD (residues 634-641), biotin-SGSG at the N terminus; experiment: AlphaScreen or HTRF; biotin-tagged Hsp70 peptide (6.25 ng) on streptavidin donor beads; titration (0-100 ng) of His-CHIP wt or K30A on protein-A acceptor beads by anti-His mAb; 1 h at room temperature; both purified
T2 sequence (peptide, biotin at the N terminus): SGSGGPTIEEVD

binding [1]	binding [2]	Substance
binds	–	Carboxy-terminus of Hsc70-interacting protein (CHIP), His-tagged, K30A mutant (from UniProt Q9UNE7 1-303) (enzyme)
binds	binds	Carboxy-terminus of Hsc70-interacting protein (CHIP), His-tagged, wild type (from UniProt Q9UNE7 1-303) (enzyme)

Source: paper PMC4638040
